Measured values taken from PubChem BioAssay AID328 (DTP/NCI, 2004).
The list does not hold the whole screen: it gathers tests that were run many times, whatever their T/C, doses with no T/C, and many T/C values between a quarter and a half above the control. Other doses and runs of a compound stand elsewhere. T/C is the treated group as % of the vehicle group. Some doses have a count of surviving animals in place of a T/C: the source holds a T/C of zero for them, seemingly a mark for toxic or unscored doses. Some survivor counts are full or nearly so, which does not show that the dose was tolerated: the source hardly ever lists a survival T/C far under the control, and the zero likely stands for such cases as well. Survivors were counted at the toxicity check, usually on the fifth day, unless a day is given; later deaths do not show. Schedules are NCI's codes, read here as Q, the interval in days (D) or hours (H), X, the number of doses. For survival time, this PubChem deposit counts one and a half times the control or more as active, and values a quarter to a half above the control carry no call in these data; other NCI protocols may use other cut-offs.

System: BDF1 mice, P388 leukemia ip, median survival T/C
Assay: NCI In Vivo Anticancer Drug Screen. Data for tumor model P388 Leukemia (intraperitoneal) in B6D2F1 (BDF1) mice
Details: T/C endpoint: median survival time, higher T/C = longer survival
Outline: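 Vehicle-dosed animals serve as the reference; survival of compound-dosed, tumour-implanted mice is divided by it.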

[1] = dose: 200.0 mg/kg/injection, schedule: Q01DX009 (ip), vehicle: water
[2] = dose: 200.0 mg/kg/injection, schedule: Q04DX003 (ip), vehicle: water
[3] = dose: 200.0 mg/kg/injection, schedule: Q01DX009 (ip), vehicle: other
[4] = dose: 200.0 mg/kg/injection, schedule: Q04DX003 (ip), vehicle: Klucel (hydroxypropylcellulose) (HPC)
[5] = dose: 200.0 mg/kg/injection, schedule: Q04DX003 (ip), vehicle: saline with Tween-80
[6] = dose: 400.0 mg/kg/injection, schedule: Q04DX003 (ip), vehicle: Klucel (hydroxypropylcellulose) (HPC)
[7] = dose: 400.0 mg/kg/injection, schedule: Q04DX003 (ip), vehicle: saline with Tween-80
[8] = dose: 12.5 mg/kg/injection, schedule: Q01DX009 (ip), vehicle: saline
[9] = dose: 100.0 mg/kg/injection, schedule: Q04DX003 (ip), vehicle: Klucel (hydroxypropylcellulose) (HPC)

Q: How did the survivor count (dose: 1.56 mg/kg/injection, schedule: Q04DX003 (ip), vehicle: saline) turn out when COc1ccc(CC2c3ccccc3CC[N+]2(C)C)cc1Oc1ccc(CC2c3ccccc3CC[N+]2(C)C)cc1 (stereo unspecified) was run?
A: The survivor count was 0 of 6.

Q: And the survivor count (dose: 3.13 mg/kg/injection, schedule: Q04DX003 (ip), vehicle: saline with Tween-80)?
A: The survivor count was 1 of 6.

Q: What about the survivor count (dose: 6.25 mg/kg/injection, schedule: Q04DX003 (ip), vehicle: saline with Tween-80) of the same compound?
A: Its survivor count is 0 of 6.

Q: What about the survivor count (dose: 25.0 mg/kg/injection, schedule: Q04DX003 (ip), vehicle: saline with Tween-80) of the same compound?
A: Its survivor count is 0 of 6.

Q: And the survivor count (dose: 50.0 mg/kg/injection, schedule: Q04DX003 (ip), vehicle: saline with Tween-80)?
A: Its survivor count is 0 of 6.

Q: And the survivor count (dose: 100.0 mg/kg/injection, schedule: Q04DX003 (ip), vehicle: saline with Tween-80)?
A: The survivor count was 0 of 6.

Q: For CSc1cccc(NC(=O)N2CCN(c3ccccc3)CC2)c1, which survivor count (dose: 50.0 mg/kg/injection, schedule: Q01DX009 (ip), vehicle: DMSO) is on record?
A: Its survivor count is 0 of 6.

Q: How did the survivor count [1] turn out when CCN(CC)CCCNC(C)CCCN(CC)CC (stereo unspecified) was run?
A: The survivor count was 3 of 6.

Q: And the survivor count (dose: 400.0 mg/kg/injection, schedule: Q01DX009 (ip), vehicle: water)?
A: The survivor count was 0 of 6.

Q: And the survivor count (dose: 400.0 mg/kg/injection, schedule: Q04DX003 (ip), vehicle: water)?
A: The survivor count was 3 of 6.

Q: With C=CC[N+](C)(CC=C)CC[N+](C)(CC=C)CC=C as the compound, how does the survivor count [2] read?
A: Its survivor count is 0 of 6.

Q: How did the survivor count (dose: 100.0 mg/kg/injection, schedule: Q04DX002 (ip), vehicle: saline with Tween-80) turn out when CCC1C/C(=C2/NC3CCCCC3NC2=O)C(=O)O1 (stereo unspecified) was run?
A: The survivor count was 0 of 6.

Q: And the survivor count (dose: 200.0 mg/kg/injection, schedule: Q04DX002 (ip), vehicle: saline with Tween-80)?
A: The survivor count was 3 of 6.

Q: And the survivor count (dose: 400.0 mg/kg/injection, schedule: Q04DX002 (ip), vehicle: saline with Tween-80)?
A: Its survivor count is 0 of 6.

Q: How did the survivor count (dose: 50.0 mg/kg/injection, schedule: Q01DX005 (ip), vehicle: saline with Tween-80) turn out when CC(C)(C)OC(=O)NC(CCC(=O)O)(Cc1ccccc1)C(=O)NC(CCC(=O)O)(Cc1ccccc1)C(=O)OCc1ccccc1 (stereo unspecified) was run?
A: The survivor count was 4 of 5.

Q: And the survivor count (dose: 100.0 mg/kg/injection, schedule: Q01DX005 (ip), vehicle: saline with Tween-80)?
A: The survivor count was 5 of 5.

Q: For C=CS(=O)(=O)c1ccccc1, which T/C (dose: 25.0 mg/kg/injection, schedule: Q01DX009 (ip), vehicle: other) is on record?
A: Its T/C is 131 % of control.

Q: What about the T/C (dose: 36.0 mg/kg/injection, schedule: Q01DX009 (ip), vehicle: saline with Tween-80) of the same compound?
A: Its T/C is 138 % of control.

Q: And the T/C (dose: 50.0 mg/kg/injection, schedule: Q01DX009 (ip), vehicle: other)?
A: Its T/C is 125 % of control.

Q: What about the T/C (dose: 54.0 mg/kg/injection, schedule: Q01DX009 (ip), vehicle: saline with Tween-80) of the same compound?
A: Its T/C is 129 % of control.

Q: What about the survivor count (dose: 100.0 mg/kg/injection, schedule: Q01DX009 (ip), vehicle: other) of the same compound?
A: Its survivor count is 2 of 6.

Q: And the survivor count [3]?
A: The survivor count was 0 of 6.

Q: With O=CNC(Cc1ccc(N(CCCl)CCCl)cc1)C(=O)O (stereo unspecified) as the compound, how does the T/C (dose: 11.0 mg/kg/injection, schedule: Q04DX003 (ip), vehicle: saline) read?
A: The T/C was 140 % of control.

Q: What about the T/C (dose: 19.0 mg/kg/injection, schedule: Q04DX003 (ip), vehicle: Klucel (hydroxypropylcellulose) (HPC)) of the same compound?
A: The T/C was 125 % of control.

Q: What about the T/C (dose: 90.0 mg/kg/injection, schedule: Q04DX003 (ip), vehicle: Klucel (hydroxypropylcellulose) (HPC)) of the same compound?
A: Its T/C is 136 % of control.

Q: What about the T/C (dose: 100.0 mg/kg/injection, schedule: Q01DX009 (ip), vehicle: Klucel (hydroxypropylcellulose) (HPC)) of the same compound?
A: The T/C was 136 % of control.

Q: And the survivor count (dose: 200.0 mg/kg/injection, schedule: Q01DX009 (ip), vehicle: Klucel (hydroxypropylcellulose) (HPC))?
A: The survivor count was 5 of 6.

Q: What about the survivor count [4] of the same compound?
A: The survivor count was 4 of 6.

Q: What about the survivor count [5] of the same compound?
A: The survivor count was 6 of 6.

Q: What about the survivor count (dose: 300.0 mg/kg/injection, schedule: Q04DX003 (ip), vehicle: Klucel (hydroxypropylcellulose) (HPC)) of the same compound?
A: Its survivor count is 3 of 6.

Q: And the survivor count [6]?
A: The survivor count was 6 of 6.

Q: What about the survivor count [7] of the same compound?
A: Its survivor count is 0 of 6.

Q: Nc1ncns1 was tested. Which survivor count (dose: 200.0 mg/kg/injection, schedule: Q04DX003 (ip), vehicle: saline) did it give?
A: Its survivor count is 1 of 6.

Q: What about the survivor count (dose: 400.0 mg/kg/injection, schedule: Q04DX003 (ip), vehicle: saline) of the same compound?
A: Its survivor count is 0 of 6.

Q: With O=C(O)c1cc[c]([Hg][S]c2ncnc3nc[nH]c23)cc1 as the compound, how does the survivor count (dose: 50.0 mg/kg/injection, schedule: Q01DX009 (ip), vehicle: suspension in saline) read?
A: Its survivor count is 3 of 6.

Q: And the survivor count (dose: 100.0 mg/kg/injection, schedule: Q01DX009 (ip), vehicle: suspension in saline)?
A: The survivor count was 0 of 6.

Q: And the survivor count (dose: 200.0 mg/kg/injection, schedule: Q01DX009 (ip), vehicle: suspension in saline)?
A: Its survivor count is 0 of 6.

Q: Which survivor count [7] does the source give for Cc1nc2nc(N)nc(N)c2nc1C here?
A: Its survivor count is 3 of 6.

Q: COc1cccc2c1C(=O)c1c(O)c3c(c(O)c1C2=O)C[C@@](O)(C(=O)CO)C[C@@H]3OC1CC(NC(=S)Nc2ccc(F)cc2)C(O)C(C)O1 (stereo partly specified) was tested. Which T/C (dose: 6.25 mg/kg/injection, schedule: Q01DX009 (ip), vehicle: saline) did it give?
A: Its T/C is 133 % of control.

Q: What about the T/C [8] of the same compound?
A: Its T/C is 127 % of control.

Q: What about the survivor count [8] of the same compound?
A: The survivor count was 6 of 6.

Q: What about the survivor count (dose: 25.0 mg/kg/injection, schedule: Q01DX009 (ip), vehicle: saline) of the same compound?
A: Its survivor count is 5 of 6.

Q: And the T/C (dose: 50.0 mg/kg/injection, schedule: Q01DX009 (ip), vehicle: saline)?
A: Its T/C is 142 % of control.

Q: For NC(=O)c1ccc(C(N)=O)cc1, which survivor count (dose: 100.0 mg/kg/injection, schedule: Q01DX009 (ip), vehicle: saline with Tween-80) is on record?
A: Its survivor count is 6 of 6.

Q: And the survivor count (dose: 200.0 mg/kg/injection, schedule: Q01DX009 (ip), vehicle: saline with Tween-80)?
A: Its survivor count is 3 of 6.

Q: And the survivor count (dose: 400.0 mg/kg/injection, schedule: Q01DX009 (ip), vehicle: saline with Tween-80)?
A: Its survivor count is 0 of 6.

Q: For COc1ccc(/C=C2\CCCC3=C2N=C2SCC(=O)N2C3c2ccc(OC)cc2)cc1 (stereo unspecified), which survivor count [5] is on record?
A: The survivor count was 6 of 6.

Q: For CCCCCCCCCCCCCCCCCCSc1ccccc1, which survivor count [9] is on record?
A: The survivor count was 6 of 6.

Q: What about the survivor count [4] of the same compound?
A: Its survivor count is 6 of 6.

Q: And the survivor count [6]?
A: Its survivor count is 6 of 6.

Q: With CC[N-]c1nnnn1CC.[Au+].c1ccc([PH+](c2ccccc2)c2ccccc2)cc1 as the compound, how does the survivor count (dose: 50.0 mg/kg/injection, schedule: Q01DX001 (ip), vehicle: saline with Tween-80) read?
A: The survivor count was 0 of 6.

Q: Which results are given for CC(C)(O)c1cnc(OCc2ccccc2)nc1OCc1ccccc1?
A: survivor count [9]: 6 of 6; survivor count [4]: 6 of 6; survivor count [6]: 6 of 6

Q: Which results are given for O=C(O)C1(C(=O)O)CCC2(CCCCC2)CC1?
A: survivor count (dose: 100.0 mg/kg/injection, schedule: Q01DX009 (ip), vehicle: water): 3 of 6; survivor count (dose: 100.0 mg/kg/injection, schedule: Q04DX003 (ip), vehicle: water): 2 of 6; survivor count [1]: 1 of 6; survivor count [2]: 3 of 6

Q: How did the T/C (dose: 12.5 mg/kg/injection, schedule: Q01DX001 (ip), vehicle: saline) turn out when N=P(N[P+](N)(c1ccccc1)c1ccccc1)(c1ccccc1)c1ccccc1 was run?
A: The T/C was 132 % of control.

Q: And the survivor count (dose: 50.0 mg/kg/injection, schedule: Q01DX001 (ip), vehicle: saline)?
A: The survivor count was 1 of 6.

Q: With CCCCSc1cc(Cc2cc(C)ccc2O)c(O)c(Cc2cc(C)ccc2O)c1 as the compound, how does the T/C [3] read?
A: Its T/C is 125 % of control.

Q: How did the survivor count (dose: 30.0 mg/kg/injection, schedule: Q01DX009 (ip), vehicle: saline with Tween-80) turn out when CCOc1ccc(S(=O)(=O)c2ccc(C)cc2)c2c1no[n+]2[O-] was run?
A: Its survivor count is 7 of 7.

Q: And the survivor count (dose: 60.0 mg/kg/injection, schedule: Q01DX009 (ip), vehicle: saline with Tween-80)?
A: The survivor count was 7 of 7.

Q: Which results are given for O=C1c2cccnc2C(=O)N1Cc1ccccc1?
A: survivor count (dose: 75.0 mg/kg/injection, schedule: Q01DX009 (ip), vehicle: saline with Tween-80): 6 of 6; survivor count (dose: 150.0 mg/kg/injection, schedule: Q01DX009 (ip), vehicle: saline with Tween-80): 6 of 6; survivor count (dose: 300.0 mg/kg/injection, schedule: Q01DX009 (ip), vehicle: saline with Tween-80): 6 of 6
